Assay results reported in PubChem BioAssay AID1487 (National Center for Advancing Translational Sciences (NCATS), 2009).
“And” between values parts separate entries of the source, which are not always exact repeats. Equal values may be shown once. This is one part of the list. Further columns of the screen follow, without active or inactive calls. The list favours compounds with an active or inconclusive main result. The note in brackets gives the kind of curve behind each potency; many fits are weak.

Test: qHTS Assay for Modulators of Lamin A Splicing
Settings: HeLa LMNA splicing GFP/RFP minigene ratio, 48 h
From the text: NCGC Assay Overview: Hutchinson-Gilford Progeria Syndrome (HGPS) is a pediatric premature aging disease caused by a spontaneous mutation in the lamin A/C (LMNA) gene. The mutation activates a cryptic splice site in the LMNA pre-mRNA which results in production of a pre-lamin A protein that cannot be processed properly. The mutant protein accumulates in the nucleus and negatively affects numerous cellular functions. Correction of the splicing defect in HGPS patient cells using a targeted oligonucleotide (exo11) leads to reversal of the cellular disease phenotypes. To identify small molecule modulators of aberrant LMNA splicing, a homogenous assay was constructed in HeLa cells that used a GFP containing minigene to report on correction of aberrant splicing in lamin A and a RFP (DsRed2) to report on cell viability, uniformity and nonspecific effects on the assay signal. This assay was adapted to laser-scanning microplate cytometry (Acumen, TTP Labtech) where miniaturization of the assay to a 1,536-well plate format was possible. References: Bowen, W. P.; Wylie, P. G. Application of Laser-Scanning Fluorescence Microplate Cytometry in High Content Screening. Assay Drug Dev Technol 2006;4:209-221. Scaffidi P, Misteli T. Reversal of the cellular phenotype in the premature aging disease Hutchinson-Gilford progeria syndrome. Nat.
NCGC Assay Protocol Summary: Reagents/Controls: Stable clones expressing DsRed2 and lamin A-EGFP were generated by Cell and Molecular Technologies in S3 HeLa cells. HeLa cells were prepared for the assay when they were 70-90% confluent. The cells were counted and resuspended in Opti-MEM I (no phenol red; Gibco), 2% FBS, 1% penicillin/ streptomycin (Gibco) at concentration of 120 cells/uL concentration. The suspension was passed through a Falcon basket filter with pore size 40um (Beckton Dickson). Control titrations: column […] 1536-well plate contained a sixteen point titration (1:2 dilutions) in duplicate of ancitabine (Sigma: A8598) beginning at 40 uM final concentration. Column 2 contained a sixteen point titration (1:2 dilutions) of cycloheximide beginning at 1.4 mM final concentration. Column 3 contained ancitabine at 40 uM and column 4 contained was the vehicle control (0.5% DMSO final concentration). Assay Steps: 5 uL of HeLa cells were plated in Aurora LoBase black clear bottom (cyclic-olefin polymer) 1536-well plates at a final density of 600 cells/well. Controls and library compounds were added with a 1536-well pin array using the Kalypsys pin-tool. The plates were then incubated for 48 hrs in a cell-culture incubator (37 °C; 5% CO2, 98% humidity). Following incubation the plates were read on the Acumen Explorer using the 488 nm laser. Data was collected on objects between 10 and 100 um in size. Cell objects were defined by a 15 um width x 10 um depth filter. The ratio of the total object intensity in PMT1 (500-530 nm emission; GFP) over PMT3 (575-640 nm emission; RFP) was calculated for analysis. Keywords: NIH Roadmap, MLSCN, MLI, MLSMR, qHTS, NCGC, lamin A, Progeria, RNA splicing.

[1] = measured here: RFP viability control channel
[2] = measured here: GFP splicing reporter channel

| Structure (SMILES) | AC50 [1] | AC50 [2] |
| --- | --- | --- |
| O=C1NC(=O)C(=Cc2ccc(OCCOc3ccc([N+](=O)[O-])cc3)cc2)C(=O)N1 | 20 µM [falling, single point] |  |
| Cc1nonc1OCCNCCNc1ccc([N+](=O)[O-])c2cccnc12 | 0.501 µM [rising, full curve, poor fit] | 0.355 µM [rising, full curve] |
| CCCN1CCO[C@@H]2c3cc(O)ccc3OC[C@H]21 | 6.31 µM [falling, single point] |  |
| CC1CCN(c2nc(NCc3ccco3)nc(N)c2[N+](=O)[O-])CC1 | 22.4 µM [rising, partial curve] | 15.8 µM [rising, partial curve] |
| O=C(Nc1ccc(F)cc1F)c1cccn(Cc2ccccc2)c1=O |  | 0.01 µM [rising, full curve, poor fit] |
| c1ccc2c3c([nH]c2c1)CNCC3 |  | 22.4 µM [rising, single point] |
| O=c1[nH]c(=O)n(-c2ccccc2)c(O)c1/C=C/C=Nc1ccccc1 |  | 35.5 µM [falling, single point] |
| Cc1cc(OC(=O)c2cccs2)c2c3c(c(=O)oc2c1)CCCC3 | 12.6 µM [rising, partial curve] |  |
| CCCCCCCCCCCCCCCC[n+]1ccccc1 | 5.62 µM [falling, partial curve, poor fit] | 0.000891 µM [falling, full curve, poor fit] |
| CN(C)[C@@H]1C(=O)C(C(N)=O)=C(O)[C@]2(O)C(=O)C3=C(O)c4c(O)cccc4[C@@](C)(O)[C@H]3[C@H](O)[C@@H]12 | 0.0794 µM [falling, full curve, poor fit] |  |
| O=C1/C(=C/c2cccnc2)SC(=NCc2ccccc2)N1Cc1ccccc1 | 10 µM [rising, partial curve] |  |
| Cc1ccc(CN2CCN(Cc3ccccc3)CC2)cc1 | 0.00355 µM [falling, full curve, poor fit] |  |
| C=C(C)C1Cc2c(ccc3c2OC2COc4cc(OC)c(OC)cc4C2C3=O)O1 (stereo unspecified) | 2.82 µM [falling, full curve, poor fit] | 1.12 µM [falling, full curve] |
| COc1ccc(CCN)cc1O | 5.62 µM [falling, single point] | 5.62 µM [falling, partial curve, poor fit] |
| COC(=O)c1cc2c(cn1)[nH]c1ccccc12 | 0.001 µM [falling, full curve, poor fit] | 22.4 µM [falling, partial curve, poor fit] |
| C[C@@H]1O[C@@H](O[C@H]2C[C@@H](O)[C@]3(CO)[C@H]4[C@H](O)C[C@]5(C)[C@@H]([C@@H]6COC(=O)C6)CC[C@]5(O)[C@@H]4CC[C@]3(O)C2)[C@H](O)[C@H](O)[C@H]1O | 1 µM [rising, full curve] | 2 µM [falling, full curve] |
| CC(CO)NC(=O)C1C=C2c3cccc4[nH]cc(c34)CC2N(C)C1 (stereo unspecified) | 0.398 µM [rising, full curve] | 0.316 µM [rising, full curve] |
| Clc1ccc(C(c2ccc(Cl)cc2)n2cc[n+](CC(OCc3ccc(Cl)cc3Cl)c3ccc(Cl)cc3Cl)c2)cc1 (stereo unspecified) | 12.6 µM [falling, partial curve] | 17.8 µM [falling, partial curve] |
| N[C@@H](Cc1c[nH]c2ccccc12)c1nnc(SCc2ccc(Cl)cc2)o1 | 2 µM [rising, partial curve, poor fit] | 10 µM [rising, partial curve, poor fit] |
| CCn1c(O)c(C=NCc2cccs2)c(=O)n(CC)c1=S | 31.6 µM [rising, single point] |  |
| Nc1c(Br)cc(Br)cc1CNC1CCC(O)CC1 (stereo unspecified) | 31.6 µM [falling, single point] | 2.51 nM [falling, partial curve, poor fit] and 794 nM [falling, partial curve, poor fit] |
| O=C(Cn1ncc2c3ccccc3n(Cc3ccccc3)c2c1=O)N1CCC2(CC1)OCCO2 | 17.8 µM [rising, single point] | 12.6 µM [rising, partial curve] |
| COCCNC(=O)c1c(NC(=O)c2ccc(Br)o2)n(Cc2ccccc2)c2nc3ccccc3nc12 |  | 3.16 µM [falling, partial curve, poor fit] |
| CC(=NCCO)c1c(O)n(C2CCCCC2)c(=O)[nH]c1=O | 0.158 µM [rising, partial curve] |  |
| CN1CCC(O)(c2ccc(Cl)cc2)C(C(=O)c2ccc(Cl)cc2)C1 (stereo unspecified) | 35.5 µM [falling, single point] | 10 µM [falling, partial curve, poor fit] |

Structures above that contain a halogen (six):

| Structure (SMILES) | AC50 [1] | AC50 [2] |
| --- | --- | --- |
| O=C(Nc1ccc(F)cc1F)c1cccn(Cc2ccccc2)c1=O |  | 0.01 µM [rising, full curve, poor fit] |
| Clc1ccc(C(c2ccc(Cl)cc2)n2cc[n+](CC(OCc3ccc(Cl)cc3Cl)c3ccc(Cl)cc3Cl)c2)cc1 (stereo unspecified) | 12.6 µM [falling, partial curve] | 17.8 µM [falling, partial curve] |
| N[C@@H](Cc1c[nH]c2ccccc12)c1nnc(SCc2ccc(Cl)cc2)o1 | 2 µM [rising, partial curve, poor fit] | 10 µM [rising, partial curve, poor fit] |
| Nc1c(Br)cc(Br)cc1CNC1CCC(O)CC1 (stereo unspecified) | 31.6 µM [falling, single point] | 2.51 nM [falling, partial curve, poor fit] and 794 nM [falling, partial curve, poor fit] |
| COCCNC(=O)c1c(NC(=O)c2ccc(Br)o2)n(Cc2ccccc2)c2nc3ccccc3nc12 |  | 3.16 µM [falling, partial curve, poor fit] |
| CN1CCC(O)(c2ccc(Cl)cc2)C(C(=O)c2ccc(Cl)cc2)C1 (stereo unspecified) | 35.5 µM [falling, single point] | 10 µM [falling, partial curve, poor fit] |

No new results follow: 2 of the compounds above.

| Structure (SMILES) | AC50 [1] | AC50 [2] |
| --- | --- | --- |
| COc1ccc(CCN)cc1O | 5.62 µM [falling, single point] | 5.62 µM [falling, partial curve, poor fit] |
| COC(=O)c1cc2c(cn1)[nH]c1ccccc12 | 0.001 µM [falling, full curve, poor fit] | 22.4 µM [falling, partial curve, poor fit] |

Later entries

| Structure (SMILES) | AC50 [1] | AC50 [2] |
| --- | --- | --- |
| N#C/C(=C\c1ccc(O)c(O)c1)C(=O)NCCCNC(=O)/C(C#N)=C/c1ccc(O)c(O)c1 | 3.16 µM [rising, full curve, poor fit] |  |
| COC(=O)C1CN(C#N)N(c2ccc(Cl)cc2)C12c1ccccc1-c1ccccc12 (stereo unspecified) | 7.08 µM [falling, partial curve] | 0.501 µM [falling, partial curve, poor fit] |
| CN(C)C(=O)Oc1ccc(OCc2n(C)c3ccccc3[n+]2C)cc1 | 11.2 µM [rising, partial curve] | 17.8 µM [rising, partial curve] |
| c1ccc2c(CNC3CCCCCC3)c[nH]c2c1 | 11.2 µM [rising, partial curve] |  |
| CC(=O)OC1C([N+]2(C)CCCCC2)C[C@H]2C3CC[C@H]4C[C@H](OC(C)=O)C([N+]5(C)CCCCC5)CC4(C)C3CCC12C (stereo partly specified) |  | 0.0141 µM [falling, full curve, poor fit] |
| O=C(Nc1ccc(F)c([N+](=O)[O-])c1)c1cccn(Cc2ccccc2)c1=O | 1.12 µM [falling, full curve] | 0.158 µM [falling, partial curve] |
| O=C(CN1CC=C(c2ccccc2)CC1)Nc1cc(Cl)ccc1Cl | 17.8 µM [rising, partial curve, poor fit] |  |
| COc1ccc(NC2=NCC(C)S2)cc1 (stereo unspecified) | 3.55 µM [rising, single point] | 5.01 µM [rising, partial curve, poor fit] |
| CC(C)(C)c1cc(O)ccc1O | 1.26 µM [falling, full curve, poor fit] | 35.5 µM [falling, single point] |
| CC(O)C1CCC2C3CCC4CC(O)CCC4(C)C3CCC12C (stereo unspecified) | 4.47 µM [rising, full curve] | 7.94 µM [rising, partial curve] |
| Brc1c(NC2=NCCN2)ccc2nccnc12 | 2.51 µM [falling, partial curve, poor fit] and 12.6 µM [rising, partial curve] | 1.58 µM [falling, partial curve] |
| O=C1OC(=O)C2C1[C@@H]1CC[C@H]2O1 (stereo partly specified) | 35.5 µM [rising, partial curve] | 35.5 µM [rising, partial curve, poor fit] |
| Cc1cccc2c3c(ccc12)C1=C(C(=O)C3=O)C(C)CO1 (stereo unspecified) | 22.4 µM [falling, single point] | 17.8 µM [falling, single point] |
| CCC1/C=C/C=CCC(C)C(O)[C@@](C)(O)C(=O)C(C)C(O)C(C)C(=O)C(C)C(O)C(C)C=CC(=O)O[C@H]2C(C)C(CC1)O[C@]1(CCC(C)C(CC(C)O)O1)C2C (stereo partly specified) |  | 0.891 µM [rising, partial curve, poor fit] |
| O=c1c2ccccc2nc(/C=C/c2ccc3c(c2)OCO3)n1-c1cccc(O)c1 | 20 µM [rising, partial curve] | 14.1 µM [rising, single point] |
| NC(=O)CS(=O)C(c1ccccc1)c1ccccc1 (stereo unspecified) | 0.00178 µM [rising, full curve, poor fit] |  |
| CC(=NCc1ccc2c(c1)OCO2)c1c(O)n(C)c(=O)n(C)c1=O | 20 µM [rising, partial curve] | 20 µM [rising, single point] |
| O=P1(N(CCCl)CCCl)NCCCO1 (stereo unspecified) |  | 0.794 µM [falling, full curve] |
| CC(C)(C)C(=O)OC[N+](C)(C)CCOC(=O)C(O)(c1ccccc1)C1CCCC1 (stereo unspecified) | 35.5 µM [rising, partial curve, poor fit] | 2.24 µM [rising, partial curve, poor fit] |
| c1ccc2c(c1)sc1ccccc12 |  | 0.0794 µM [falling, full curve, poor fit] |
| CCc1nc2ccccc2c(=O)n1-c1cccc(OC)c1 |  | 8.91 µM [rising, partial curve, poor fit] |
| CN1[C@@H]2CC[C@H]1CC(O)C2 (stereo partly specified) | 3.55 µM [falling, partial curve, poor fit] |  |
| Cn1c(O)c(C=NCCc2c[nH]c3ccccc23)c(=O)n(C)c1=O | 11.2 µM [falling, single point] |  |
| CC(=O)OCC1=C(C(=O)[O-])N2C(=O)[C@@H](NC(=O)CCC[C@@H](N)C(=O)[O-])[C@H]2SC1.[Zn+2] | 0.00398 µM [falling, full curve, poor fit] |  |
| O=C(O)CNC(=O)c1ccccc1I | 8.91 µM [falling, partial curve] | 10 µM [falling, partial curve, poor fit] |
